Experimental data as given in article PMC11663792.
These are yes or no findings as the source states them, for the method shown. In cells and extracts the contact can be indirect. Some entries that bind do so weakly or less than the wild type.

Amino acid sequences for entries named in this document (tags omitted).
UniProt O14980: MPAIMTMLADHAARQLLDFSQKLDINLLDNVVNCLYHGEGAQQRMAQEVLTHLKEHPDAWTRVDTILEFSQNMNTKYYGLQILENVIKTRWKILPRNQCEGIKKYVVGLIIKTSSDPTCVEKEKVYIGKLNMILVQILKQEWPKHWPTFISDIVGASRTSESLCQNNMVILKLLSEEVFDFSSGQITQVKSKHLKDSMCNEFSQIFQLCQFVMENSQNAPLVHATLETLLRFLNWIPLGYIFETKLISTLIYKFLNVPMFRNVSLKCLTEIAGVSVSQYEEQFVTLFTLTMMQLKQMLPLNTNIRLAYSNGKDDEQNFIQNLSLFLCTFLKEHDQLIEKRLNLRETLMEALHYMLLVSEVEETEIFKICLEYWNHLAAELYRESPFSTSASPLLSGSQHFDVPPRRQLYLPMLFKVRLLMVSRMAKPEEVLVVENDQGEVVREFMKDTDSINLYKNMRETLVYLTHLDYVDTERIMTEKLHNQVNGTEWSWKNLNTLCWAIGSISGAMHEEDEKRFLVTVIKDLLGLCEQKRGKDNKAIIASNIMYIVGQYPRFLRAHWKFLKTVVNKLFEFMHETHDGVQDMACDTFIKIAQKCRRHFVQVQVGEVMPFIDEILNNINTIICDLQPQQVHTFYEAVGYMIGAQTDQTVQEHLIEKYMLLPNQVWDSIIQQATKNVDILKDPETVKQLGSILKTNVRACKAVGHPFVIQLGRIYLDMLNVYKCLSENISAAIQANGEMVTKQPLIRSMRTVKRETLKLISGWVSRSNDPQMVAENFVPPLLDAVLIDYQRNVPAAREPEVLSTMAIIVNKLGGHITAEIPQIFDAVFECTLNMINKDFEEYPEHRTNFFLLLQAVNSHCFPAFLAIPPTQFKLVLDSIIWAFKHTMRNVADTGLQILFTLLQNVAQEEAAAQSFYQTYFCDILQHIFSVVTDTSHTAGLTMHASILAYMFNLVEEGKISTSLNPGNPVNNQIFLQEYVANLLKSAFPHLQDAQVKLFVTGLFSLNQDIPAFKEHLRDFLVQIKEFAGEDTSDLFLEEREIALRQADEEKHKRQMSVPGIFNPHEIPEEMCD
UniProt O15392: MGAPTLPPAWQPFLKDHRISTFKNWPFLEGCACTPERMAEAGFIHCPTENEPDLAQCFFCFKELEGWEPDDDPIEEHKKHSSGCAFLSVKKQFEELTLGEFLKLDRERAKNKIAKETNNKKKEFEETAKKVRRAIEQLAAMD

Columns and labels:
[1] = molecular target: exportin 1 (XPO1) (human (endogenous in NCI-H23 and H1703)) (UniProt O14980); assay: condition: only cells treated with selinexor (XPO1 inhibitor); co-IP; whole-cell extract of NCI-H23 cells treated with the XPO1 inhibitor selinexor
[2] = molecular target: exportin 1 (XPO1) (human (endogenous in NCI-H23 and H1703)) (UniProt O14980); assay: co-IP; endogenous proteins in whole-cell lysates of cell lines (A549, NCI-H23, H1703, HBEC, WI-38); antibody or mock IgG, Protein G Agarose, washed with RIPA buffer, immunoblot; some cells treated with sotorasib, KRAS siRNA, NTF2 siRNA, serum, EGF, or overexpressing KRAS-G12C or KRAS-S17N

In the case of survivin (from UniProt O15392 1-142), the binding [1] is reported as “no binding” and the binding [2] is reported as “binds”.
